{"sequences": {"note": "Sequences of proteins named here, by UniProt entry; tags and fusion partners are left off. A change or cut given only in a name is not applied to a line headed by its entry.", "UniProt Q4WYW9": "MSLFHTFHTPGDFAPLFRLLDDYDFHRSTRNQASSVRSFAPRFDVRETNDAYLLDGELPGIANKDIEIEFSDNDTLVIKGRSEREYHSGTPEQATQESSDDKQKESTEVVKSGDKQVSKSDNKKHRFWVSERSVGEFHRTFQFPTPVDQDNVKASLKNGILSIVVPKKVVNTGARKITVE", "UniProt Q4WW00": "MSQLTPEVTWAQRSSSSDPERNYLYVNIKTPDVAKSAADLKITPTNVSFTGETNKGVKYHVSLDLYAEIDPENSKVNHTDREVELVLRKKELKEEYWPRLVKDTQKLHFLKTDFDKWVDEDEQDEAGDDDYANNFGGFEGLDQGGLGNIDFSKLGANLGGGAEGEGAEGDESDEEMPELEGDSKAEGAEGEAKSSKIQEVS", "UniProt Q4WJA0": "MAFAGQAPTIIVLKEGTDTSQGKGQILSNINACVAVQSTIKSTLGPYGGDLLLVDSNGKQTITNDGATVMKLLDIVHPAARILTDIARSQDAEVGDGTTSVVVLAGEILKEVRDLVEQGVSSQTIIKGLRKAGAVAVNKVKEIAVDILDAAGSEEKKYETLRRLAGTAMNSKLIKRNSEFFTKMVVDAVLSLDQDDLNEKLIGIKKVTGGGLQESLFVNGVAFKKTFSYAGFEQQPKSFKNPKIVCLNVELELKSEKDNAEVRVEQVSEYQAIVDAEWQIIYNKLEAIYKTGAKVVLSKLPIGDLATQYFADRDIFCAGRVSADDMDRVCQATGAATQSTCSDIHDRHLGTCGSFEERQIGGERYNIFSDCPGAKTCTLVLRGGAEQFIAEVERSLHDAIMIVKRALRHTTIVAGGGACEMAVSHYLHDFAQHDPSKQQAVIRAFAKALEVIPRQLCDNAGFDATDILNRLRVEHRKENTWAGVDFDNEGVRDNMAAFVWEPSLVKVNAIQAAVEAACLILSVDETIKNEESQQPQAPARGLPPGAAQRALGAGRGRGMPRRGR", "UniProt Q4WLT4": "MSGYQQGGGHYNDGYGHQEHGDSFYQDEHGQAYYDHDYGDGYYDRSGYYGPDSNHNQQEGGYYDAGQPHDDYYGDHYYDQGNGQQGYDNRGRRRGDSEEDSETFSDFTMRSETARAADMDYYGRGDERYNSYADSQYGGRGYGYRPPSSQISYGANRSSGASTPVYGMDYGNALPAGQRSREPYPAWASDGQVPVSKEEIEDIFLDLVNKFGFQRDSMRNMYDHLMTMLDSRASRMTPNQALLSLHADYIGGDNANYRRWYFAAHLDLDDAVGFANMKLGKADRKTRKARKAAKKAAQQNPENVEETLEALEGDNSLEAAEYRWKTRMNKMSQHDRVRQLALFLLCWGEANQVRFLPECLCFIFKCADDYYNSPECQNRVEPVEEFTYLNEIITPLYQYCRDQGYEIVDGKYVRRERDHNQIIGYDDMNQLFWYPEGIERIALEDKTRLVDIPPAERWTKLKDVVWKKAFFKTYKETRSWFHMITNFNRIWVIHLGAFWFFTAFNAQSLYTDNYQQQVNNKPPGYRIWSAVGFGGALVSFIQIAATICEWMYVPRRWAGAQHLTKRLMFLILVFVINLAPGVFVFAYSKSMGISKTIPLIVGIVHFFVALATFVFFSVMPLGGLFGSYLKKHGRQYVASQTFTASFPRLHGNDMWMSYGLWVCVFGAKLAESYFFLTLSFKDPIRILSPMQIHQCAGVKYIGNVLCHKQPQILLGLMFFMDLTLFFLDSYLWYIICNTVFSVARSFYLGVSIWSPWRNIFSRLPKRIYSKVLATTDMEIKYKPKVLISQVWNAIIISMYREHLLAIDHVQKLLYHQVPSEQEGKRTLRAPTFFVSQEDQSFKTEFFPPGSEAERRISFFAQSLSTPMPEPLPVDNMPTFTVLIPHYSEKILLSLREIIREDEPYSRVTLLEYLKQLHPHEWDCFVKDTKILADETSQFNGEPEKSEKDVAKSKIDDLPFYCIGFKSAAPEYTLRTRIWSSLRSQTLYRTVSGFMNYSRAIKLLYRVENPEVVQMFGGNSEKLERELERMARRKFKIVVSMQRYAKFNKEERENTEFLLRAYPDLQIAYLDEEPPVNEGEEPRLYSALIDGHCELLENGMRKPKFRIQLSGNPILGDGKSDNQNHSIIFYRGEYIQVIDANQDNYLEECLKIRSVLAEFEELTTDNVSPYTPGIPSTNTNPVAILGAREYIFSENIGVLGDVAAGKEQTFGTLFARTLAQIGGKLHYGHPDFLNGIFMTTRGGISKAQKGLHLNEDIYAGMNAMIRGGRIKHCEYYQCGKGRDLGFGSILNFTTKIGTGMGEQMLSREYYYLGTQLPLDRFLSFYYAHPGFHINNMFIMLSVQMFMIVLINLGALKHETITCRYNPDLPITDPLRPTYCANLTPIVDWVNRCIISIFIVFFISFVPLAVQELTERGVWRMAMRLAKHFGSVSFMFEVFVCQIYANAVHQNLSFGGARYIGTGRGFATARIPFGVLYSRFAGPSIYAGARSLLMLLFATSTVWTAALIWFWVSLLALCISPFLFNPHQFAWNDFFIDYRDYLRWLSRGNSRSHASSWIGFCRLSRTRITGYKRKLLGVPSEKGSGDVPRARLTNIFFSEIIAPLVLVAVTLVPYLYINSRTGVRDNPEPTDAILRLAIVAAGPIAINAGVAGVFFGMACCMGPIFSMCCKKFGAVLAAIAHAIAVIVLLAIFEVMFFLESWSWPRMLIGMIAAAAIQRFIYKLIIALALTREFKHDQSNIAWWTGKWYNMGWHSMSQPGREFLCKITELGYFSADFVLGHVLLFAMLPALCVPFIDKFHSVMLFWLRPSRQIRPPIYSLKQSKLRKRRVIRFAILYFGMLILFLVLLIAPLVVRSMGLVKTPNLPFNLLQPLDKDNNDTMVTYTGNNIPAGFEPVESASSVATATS", "UniProt Q4WJF0": "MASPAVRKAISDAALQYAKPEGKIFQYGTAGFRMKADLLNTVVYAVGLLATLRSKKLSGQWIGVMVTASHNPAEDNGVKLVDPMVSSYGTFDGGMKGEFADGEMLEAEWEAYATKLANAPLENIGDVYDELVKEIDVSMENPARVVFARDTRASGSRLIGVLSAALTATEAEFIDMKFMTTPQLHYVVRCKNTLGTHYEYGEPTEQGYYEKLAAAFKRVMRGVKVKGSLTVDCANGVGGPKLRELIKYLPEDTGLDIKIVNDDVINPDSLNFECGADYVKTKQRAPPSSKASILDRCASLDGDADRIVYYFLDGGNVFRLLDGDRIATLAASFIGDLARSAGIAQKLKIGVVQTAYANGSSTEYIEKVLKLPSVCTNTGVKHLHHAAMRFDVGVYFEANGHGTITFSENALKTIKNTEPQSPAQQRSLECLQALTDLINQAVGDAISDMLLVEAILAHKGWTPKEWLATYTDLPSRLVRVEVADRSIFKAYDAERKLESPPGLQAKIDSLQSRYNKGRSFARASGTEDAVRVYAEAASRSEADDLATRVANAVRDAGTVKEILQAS", "UniProt Q4WZR6": "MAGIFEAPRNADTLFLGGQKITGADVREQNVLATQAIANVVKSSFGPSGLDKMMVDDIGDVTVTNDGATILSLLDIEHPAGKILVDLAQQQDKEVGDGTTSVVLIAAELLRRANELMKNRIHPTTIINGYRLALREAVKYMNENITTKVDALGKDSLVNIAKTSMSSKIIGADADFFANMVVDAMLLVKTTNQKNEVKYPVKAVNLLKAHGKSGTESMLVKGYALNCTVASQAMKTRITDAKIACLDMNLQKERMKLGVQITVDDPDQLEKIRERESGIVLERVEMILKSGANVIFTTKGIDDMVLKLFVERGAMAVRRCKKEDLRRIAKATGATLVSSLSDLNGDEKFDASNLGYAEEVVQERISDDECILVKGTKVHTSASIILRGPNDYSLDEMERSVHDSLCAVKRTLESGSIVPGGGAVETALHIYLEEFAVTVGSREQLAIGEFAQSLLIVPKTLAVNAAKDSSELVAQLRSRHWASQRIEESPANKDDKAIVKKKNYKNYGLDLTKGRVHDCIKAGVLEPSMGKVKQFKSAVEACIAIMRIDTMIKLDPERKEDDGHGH"}, "source": "paper PMC6514138", "note": "These are yes or no findings as the source states them, for the method shown. Binding seen in cells or lysates may run through a third protein. Here binding means that the protein was enriched with, or labelled near, the bait; the list need not be complete. Where a sequence is shown, tags or fusion partners need not be part of it.", "data": [{"molecular_target": "T1, MpkC:GFP (Aspergillus fumigatus) (UniProt Q4WUN7)", "T1 sequence": "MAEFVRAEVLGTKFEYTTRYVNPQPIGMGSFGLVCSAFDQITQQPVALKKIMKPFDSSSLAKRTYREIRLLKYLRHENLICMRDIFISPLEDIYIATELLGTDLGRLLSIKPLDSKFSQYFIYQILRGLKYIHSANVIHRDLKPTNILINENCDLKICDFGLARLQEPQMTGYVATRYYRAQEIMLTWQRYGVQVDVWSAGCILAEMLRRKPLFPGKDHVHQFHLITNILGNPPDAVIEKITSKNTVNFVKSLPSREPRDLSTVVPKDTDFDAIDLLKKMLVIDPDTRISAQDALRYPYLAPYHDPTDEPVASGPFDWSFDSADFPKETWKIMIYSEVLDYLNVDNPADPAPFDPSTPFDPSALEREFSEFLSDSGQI", "assay": "affinity purification with mass spectrometry; magnetic GFP-trap beads with crude extracts of SakA:GFP or MpkC:GFP cultures grown 24 h and exposed to sorbitol 1.0 M (10, 30, 60 min) or CR 300 ug/ml (5, 15, 30, 60 min); B250 buffer (250 mM NaCl, 100 mM Tris-HCl pH 7.5, 10% glycerol, 1 mM EDTA, 0.1% NP-40), 4 C, 3 h; proteins also found with the wild-type control removed; LC-MS/MS", "values": [{"molecule": "Afu7g01860", "binding": "binds"}, {"molecule": "Afu3g14540 (from UniProt Q4WYW9)", "binding": "binds"}, {"molecule": "Afu5g13920 (from UniProt Q4WW00)", "binding": "binds"}, {"molecule": "Afu1g01740", "binding": "binds"}, {"molecule": "Afu6g07540", "binding": "binds"}, {"molecule": "Afu1g06710 (from UniProt Q4WJA0)", "binding": "binds"}, {"molecule": "Fks1 (from UniProt Q4WLT4) (enzyme)", "binding": "binds"}, {"molecule": "Afu2g02320", "binding": "binds"}, {"molecule": "Agm1 (from UniProt Q4WJF0) (enzyme)", "binding": "binds"}, {"molecule": "Afu2g16020 (from UniProt Q4WZR6)", "binding": "binds"}, {"molecule": "Sun1 (enzyme, UniProt Q4WGL5 20-414) QHHHQHRHHQHKREDVVESSATVVQYELDGKPISLKQVCAGLADNTLKFANNDHPTGICDNLSSAAAPASTPEVTSAFAPAQFIELSSVVTSATPTSASSSETVQTPAASSSSASSSSTATGLDADFPDGELDCSTFPSEYGAIPLDYLKLGGWSGIQYVSYAGNFINDIVTAVAGDTCKDGAMCSYACPPGYQKSQWPSTQGATGQSVGGIECRNGKLHLTNPSLSKKLCIPGVGGVHVQNTLGETVAVCRTDYPGTESETIPIGLGGNDLQPLTCPDGETYYKWQGKTTSAQYYVNPKGVTPEKGCQWGDGTQPIGNWAPVNLGVGLNKGKWLSIFQNSPTTSEKLDFNIKIKGDNLSGSCKYENGVFYSETGSSSSGCTVQVMSGDATFVFY", "binding": "binds"}, {"molecule": "NsdD (protein, UniProt Q4WYQ4 1-493) MGSLEATHRQRDHLPTISFFTKDGSGYTSRNSTVSSPTPLVSPTTMYPSQPSPYSYQPSAASAPPQPGYISPPESRRALEEEKEKQLQPQRQSLPSIHEALRNDSPLPYPAPPTSGPLPQAHPHPPHALVGRSAGDGPAGPPNPFSNGAPAGPYMREPAYSQLQTEASRSSLASITTQESRNPSLQSLNSSKSPTHSAKTGLTSIAGSQTGSGYEYSAPTSAGSIASPNGYTAYSQPFTFQSQPPPNAPTYPLAHHDTRPYAATPWKPGAPEPPRVEELKNGLAGRPAVPVQPQGDSAKRHLDIYEVETSLNEIVEVSTRTLDFSRHYATRAHQTQRSGPMLGTLPPLHEIEDMINLQRRNQDALMRLRTAVLNQEHALAEQMAQRKAFSAGGVHDSDHMAMYQEEFKGSGGFAGPDTKKRRGKAAPPGRCHSCNRAETPEWRRGPDGARTLCNACGLHYAKLTRKMGASKAASLGSNLKPKAALDPTPPGTR", "binding": "binds"}]}]}
